From article PMC11003700 come the findings set out here.

By UniProt entry, the sequences of proteins in these tests, tags left out.
UniProt P04198: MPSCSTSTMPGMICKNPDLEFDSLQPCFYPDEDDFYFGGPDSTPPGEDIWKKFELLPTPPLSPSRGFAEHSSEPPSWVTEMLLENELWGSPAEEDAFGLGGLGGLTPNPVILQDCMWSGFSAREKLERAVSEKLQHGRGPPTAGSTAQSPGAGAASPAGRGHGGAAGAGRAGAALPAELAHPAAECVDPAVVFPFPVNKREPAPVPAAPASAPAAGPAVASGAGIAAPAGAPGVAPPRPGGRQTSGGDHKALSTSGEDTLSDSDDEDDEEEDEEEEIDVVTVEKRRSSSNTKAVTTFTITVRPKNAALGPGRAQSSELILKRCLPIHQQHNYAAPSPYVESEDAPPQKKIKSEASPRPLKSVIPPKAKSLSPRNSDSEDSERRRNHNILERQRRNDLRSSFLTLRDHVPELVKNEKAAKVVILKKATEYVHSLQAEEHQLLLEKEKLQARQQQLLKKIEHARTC
UniProt Q96KQ7: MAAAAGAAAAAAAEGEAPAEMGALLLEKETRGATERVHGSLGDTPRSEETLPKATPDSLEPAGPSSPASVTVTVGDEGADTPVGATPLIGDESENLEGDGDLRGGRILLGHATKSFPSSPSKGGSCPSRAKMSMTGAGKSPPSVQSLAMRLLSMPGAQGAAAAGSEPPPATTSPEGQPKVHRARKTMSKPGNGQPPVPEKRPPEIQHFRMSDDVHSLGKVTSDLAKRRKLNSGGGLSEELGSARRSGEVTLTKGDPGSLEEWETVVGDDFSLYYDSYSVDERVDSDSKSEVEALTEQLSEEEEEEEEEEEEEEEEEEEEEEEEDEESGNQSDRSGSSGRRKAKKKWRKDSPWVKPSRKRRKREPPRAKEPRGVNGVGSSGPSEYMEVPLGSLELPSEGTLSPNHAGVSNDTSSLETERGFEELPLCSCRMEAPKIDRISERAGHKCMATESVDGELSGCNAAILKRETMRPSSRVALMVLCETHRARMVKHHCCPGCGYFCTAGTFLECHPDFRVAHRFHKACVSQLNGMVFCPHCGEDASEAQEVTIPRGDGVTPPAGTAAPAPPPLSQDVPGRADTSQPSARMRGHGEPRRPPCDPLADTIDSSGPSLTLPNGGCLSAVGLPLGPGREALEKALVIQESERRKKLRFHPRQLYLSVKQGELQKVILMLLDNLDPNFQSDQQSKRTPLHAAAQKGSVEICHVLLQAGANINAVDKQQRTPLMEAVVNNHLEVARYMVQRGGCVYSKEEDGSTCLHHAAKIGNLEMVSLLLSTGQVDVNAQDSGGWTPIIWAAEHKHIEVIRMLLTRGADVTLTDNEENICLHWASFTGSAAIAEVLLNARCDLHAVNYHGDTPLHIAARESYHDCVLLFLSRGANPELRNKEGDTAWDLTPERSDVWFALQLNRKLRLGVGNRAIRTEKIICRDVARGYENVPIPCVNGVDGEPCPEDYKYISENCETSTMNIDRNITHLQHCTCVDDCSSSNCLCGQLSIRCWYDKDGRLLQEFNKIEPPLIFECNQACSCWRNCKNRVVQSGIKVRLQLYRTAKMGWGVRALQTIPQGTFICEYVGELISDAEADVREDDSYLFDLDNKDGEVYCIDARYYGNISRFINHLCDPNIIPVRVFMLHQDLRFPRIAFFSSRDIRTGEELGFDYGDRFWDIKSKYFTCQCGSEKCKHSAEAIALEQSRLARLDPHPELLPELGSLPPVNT

No constants are given. Whether binding was seen depends on the method and setting. Binding seen in cells or lysates may run through a third protein. Some results given as binding are weak or reduced against the parent protein; the word gives no strength.

This assay addresses MYCN (N-Myc) (human (endogenous in IMR32)) (UniProt P04198). The experiment in a line: co-IP; MYCN co-IP from IMR32 lysate, western blot with antibodies to MYCN, G9a and WDR5; Benzonase (500 U/ml) and Mg2+ (2 mM) added as indicated.

On to “G9a (histone methyltransferase, also known as EHMT2) (from UniProt Q96KQ7 1-1210) (enzyme)”, for which the binding result is “binds”.
